The nature of this experiment: qHTS Assay for Lipid Storage Modulators in Drosophila S3 Cells.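 For cell number change: cells counted by Cell Tracker Red CMTPX staining in the red channel.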 To be noted: BODIPY lipid droplet fluorescence, 18-24 h; for cell number change: measured here: cell count max response, cells fed with added oleic acid. The procedure, abridged:
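Laser-scanning cytometry quantifies lipid droplet accumulation (500–530 nm total intensity; droplet/cell object ratio) in oleic acid-fed (400 uM added) Drosophila S3 cells treated with a concentration series. 20 uM Triacsin C defined 100% inhibition.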
On the technique in general: In qHTS, concentration-response curves come from the screen itself.

Where [1] appears, read: measured here: cell number channel AC50, cells fed with added oleic acid.
[2] abbreviates: measured here: lipid fluorescence (Fed channel) AC50, cells fed with added oleic acid.

Some of the results follow. Shown are side measurements of this screen, not its main read-out; they come without a call. Most of these compounds were active or inconclusive in the main read-out, so they are no random draw. Potencies come from curve fits of mixed quality, noted in brackets.

Regarding `CCC(c1nnc(SCC(=O)Nc2cc(C)on2)o1)N(C)C` (configuration not stated), the cell number change was -30.2%. For the same compound, the AC50 (usually the concentration at which the activity in the assay is half-maximal) under setting [1] is 14.6 µM [falling, single point]. In addition, the AC50 under setting [2] is 0.731 µM [rising, single point].

`COC(=O)c1cc(=O)n(-c2ccccc2)c(=Nc2ccccc2)s1`: the cell number change was -33.1%. The AC50 under setting [1] was 29.1 µM [falling, single point]. Besides, the half-maximal activity concentration (AC50) under setting [2] was 16.4 µM [falling, partial curve].

On to `CC1(C)CC(NC(=O)c2ccccn2)CC(C)(C)N1O`, for which the cell number change was -28.6%. Moreover, under setting [2], the AC50 is 1.16 µM [rising, single point].

For `Cc1cnn(-c2cc(N/N=C/c3ccccc3)ncn2)c1`, the cell number change was -9.73%.

For `CC(C)Cn1c(-c2ccccc2)nc(=S)c2c1CCCC2`, the cell number change came out at 36.6%. In addition, the AC50 under setting [1] is 29.1 µM [rising, single point]. The AC50 under setting [2] was 3.26 µM [falling, single point].

As to `O=C(CNc1cccc(S(=O)(=O)N2CCOCC2)c1)Nc1ccc(C(F)(F)F)cc1`, the AC50 under setting [2] was 0.103 µM [rising, full curve, poor fit].

As to `O=C(c1ccccc1)N(CCN1CCOCC1)C1(C(=O)Nc2ccccc2)CCCCC1`, the cell number change is -13%. Further, the AC50 under setting [2] is 0.82 µM [falling, full curve, poor fit].

On to `CCNC(=O)CCc1nc(-c2ccc(C(C)(C)C)cc2)no1`, for which the cell number change was -38.3%. Besides, the AC50 under setting [1] was 29.1 µM [falling, single point]. Also, the AC50 under setting [2] was 13 µM [falling, partial curve].

For `CCOC(=O)c1cnc(SCc2ccc(C(C)(C)C)cc2)nc1N`, the cell number change is -2.81%. The AC50 under setting [2] was 6.51 µM [rising, single point].

Consider `CN(c1ccccc1)S(=O)(=O)c1cccc(NC(=O)C2CC(=O)N(Cc3ccccc3)C2)c1` (configuration not stated), for which the cell number change is -2.94%. Under setting [2], the AC50 is 29.1 µM [falling, single point].

Regarding `O=C1NC2(CCCCC2)NN1c1ccccc1`, the cell number change is -0.975%. The half-maximal activity concentration (AC50) under setting [1] was 6.51 µM [rising, partial curve, poor fit]. For the same compound, the AC50 under setting [2] was 6.51 µM [rising, partial curve, poor fit].

As for `Cc1ccccc1N/C(SCc1cccc(Br)c1)=C(/C#N)C(N)=O`, the cell number change is -34.6%. Also, the AC50 under setting [1] is 29.1 µM [falling, single point]. Further, under setting [2], the AC50 was 3.66 µM [falling, full curve, poor fit].

As for `COc1ccc(S(=O)(=O)Nc2cccnc2)c(C)c1C`, the cell number change turned out to be 15.1%. Under setting [2], the AC50 is 29.1 µM [falling, single point].

Take `CCOC(=O)CNC(=O)N1CCC(CCC(=O)N(C)Cc2ccccc2)CC1`: the cell number change is 3.41%. Besides, the AC50 under setting [2] is 29.1 µM [rising, single point].

As to `NS(=O)(=O)c1ccc(CCNC(=O)CCCC2=NS(=O)(=O)c3ccccc3N2)cc1`, the AC50 under setting [2] was 0.00461 µM [rising, full curve, poor fit].

In the case of `CCC(C)NC(=O)c1ccc(CSCc2cccc(F)c2)o1` (configuration not stated), the cell number change was 61.5%. Moreover, the AC50 under setting [1] is 29.1 µM [rising, single point]. Further, the AC50 under setting [2] is 29.1 µM [rising, single point].

Regarding `Cc1cc(C(C)(C)C)cc(S(=O)(=O)NCCO)c1C`, the cell number change was -40.3%. Besides, the AC50 under setting [2] was 3.26 µM [falling, partial curve].

In the case of `CCOC(=O)c1ccccc1-n1nnnc1C`, the cell number change was -34.7%. Further, the AC50 under setting [1] was 0.116 µM [falling, full curve].

For `CCCOc1cc(C)c(S(=O)(=O)N2CCN(C)CC2)cc1C`, the AC50 under setting [2] was 1.84 µM [rising, partial curve].

For `Cc1nc2cc(NC(=O)NCc3ccccc3)ccc2o1`, the cell number change was -21.5%.

In the case of `CCN(CC)CCNC(=O)Cc1c(C(=O)O)n(CC)c2ccccc12`, the AC50 under setting [2] is 20.6 µM [falling, partial curve].

For the compound `COc1ccc(N2C(=O)CC(Sc3nc4ccccc4s3)C2=O)cc1` (configuration not stated), the cell number change came out at 13.1%. In addition, under setting [1], the AC50 was 0.164 µM [rising, full curve, poor fit].

For `Cc1nc(-c2ccc(Cl)cc2)sc1C(=O)NNC(=O)C(C)C`, the cell number change came to 47.3%. Under setting [1], the AC50 is 16.4 µM [rising, single point]. For the same compound, the AC50 under setting [2] was 16.4 µM [rising, partial curve].

For `Cc1cccc(NC(=S)NCc2ccc3c(c2)OCO3)c1`, the cell number change stood at 16%. Under setting [2], the AC50 was 16.4 µM [rising, partial curve].

Regarding `COc1ccccc1NC(=O)CCC(=O)Nc1cc(OC)c(NC(=O)c2cccs2)cc1OC`, the cell number change came to 0.417%. Under setting [2], the half-maximal activity concentration (AC50) was 0.82 µM [rising, single point].

Consider `Fc1ccccc1/C=N/n1c(COc2ccccc2)n[nH]c1=S`, for which the cell number change is -33.9%. Moreover, the AC50 under setting [1] is 29.1 µM [falling, single point]. In addition, the AC50 under setting [2] was 29.1 µM [falling, single point].

Turning to `COc1ccccc1NC(=O)CN(C)S(=O)(=O)c1ccc2c(c1)CCC(=O)N2`, the cell number change is 55.3%. Moreover, under setting [1], the AC50 was 9.2 µM [rising, partial curve, poor fit]. Also, the AC50 under setting [2] is 20.6 µM [rising, partial curve].

For the compound `CCN1CCN(CCNC(=O)c2ccc3nc(-c4cccc(C)c4)c(-c4cccc(C)c4)nc3c2)CC1`, the cell number change came out at 10.6%. Moreover, the AC50 under setting [2] was 6.51 µM [rising, single point].

Consider `COc1ccc2oc(=O)c(C(=O)Nc3ccccc3O)cc2c1`, for which the cell number change stood at 3.26%. The AC50 under setting [2] was 0.731 µM [falling, single point].

For `COc1ccc(C2C(C#N)=C(SC)NC3=C2C(=O)CC(C)(C)C3)cc1` (configuration not stated), the cell number change was -12.7%.

For the compound `Cc1nc2ccccc2c2c1C(=O)N(C1CCCCCCC1)C2=O`, the cell number change was -1.61%. For the same compound, the AC50 under setting [2] was 1.84 µM [rising, full curve, poor fit].

With `O=C(COC(=O)/C=C/c1ccc(Cl)c(Cl)c1)NC1CCCC1`, the cell number change amounted to 33.1%. Further, the AC50 under setting [1] is 20.6 µM [rising, single point]. Also, the AC50 under setting [2] was 13 µM [rising, partial curve, poor fit].

On to `COc1ccc(N2CCN(CCCNC(=O)c3ccc(CS(=O)(=O)c4ccc(OC)cc4)o3)CC2)cc1`, for which the cell number change turned out to be 7.31%. The AC50 under setting [2] is 29.1 µM [rising, single point].

Take `Cc1ccc(-c2nn(-c3ccccc3)cc2/C=C2\SC(=S)N(CCCCCC(=O)O)C2=O)o1`: the cell number change amounted to 65.1%. Besides, under setting [1], the AC50 was 25.9 µM [rising, single point]. Moreover, the AC50 under setting [2] was 29.1 µM [falling, single point].

As for `Cc1ccc(S(=O)(=O)Nn2c(C)ccc2C)cc1`, the cell number change worked out at 13.5%. The AC50 under setting [2] was 0.184 µM [falling, full curve, poor fit].

Take `CCNC(=O)C(=O)NCC1OCCCN1S(=O)(=O)c1cccs1` (configuration not stated): the cell number change is -1.44%. The AC50 under setting [1] was 6.51 µM [rising, single point]. The AC50 under setting [2] was 25.9 µM [falling, partial curve, poor fit].

Consider `O=C(C1CCN(S(=O)(=O)c2ccc(-n3cnnn3)cc2)CC1)N1CCCCC1`, for which the cell number change was -3.17%. Besides, under setting [2], the AC50 is 6.51 µM [falling, single point].

For the compound `Clc1cccc(/C=N\Nc2nccs2)c1`, the cell number change was -27.6%.

Turning to `COc1cc2c(cc1OC)C(C)N(S(=O)(=O)c1cccs1)CC2` (configuration not stated), the cell number change is -16.2%. Besides, the AC50 under setting [2] was 29.1 µM [falling, single point].

On to `CCOC(=O)C1=C(C)N=c2s/c(=C\c3ccncc3)c(=O)n2C1c1ccc2c(c1)OCO2` (configuration not stated), for which the cell number change was -44.9%. Besides, under setting [1], the AC50 is 7.31 µM [falling, full curve, poor fit]. Moreover, the AC50 under setting [2] was 0.291 µM [rising, partial curve].

Regarding `O=[N+]([O-])c1cc(Cl)c2cccnc2c1O`, the cell number change was -6.37%. Moreover, the AC50 under setting [1] was 2.59 µM [rising, single point].

In the case of `O=C(CS(=O)CC(=O)N(CC(=O)NC1CCCC1)C1CCCCC1)Nc1ccc(F)cc1` (configuration not stated), the cell number change turned out to be 0.612%. Further, the AC50 under setting [2] is 0.206 µM [falling, full curve, poor fit].

Take `CN=C(Cc1ccccc1)C1=C(O)CC(C)(C)CC1=O`: the cell number change amounted to 17.2%. For the same compound, the AC50 under setting [2] is 6.51 µM [rising, single point].

Consider `Cc1ccc(S(=O)(=O)NN2C(=O)c3ccccc3NC2c2ccccc2F)cc1` (configuration not stated), for which the cell number change amounted to 26.9%. In addition, the AC50 under setting [2] is 0.13 µM [falling, full curve].

As to `CCOC(=O)C1CCCN(C(=O)c2cc3cc4ccc(OC)cc4nc3o2)C1` (configuration not stated), the cell number change turned out to be 0.59%. Further, the AC50 under setting [1] was 4.61 µM [rising, single point].

With `Clc1ccccc1-c1nc(-c2cccnc2)no1`, the cell number change was -5.61%. In addition, the AC50 under setting [2] is 0.146 µM [falling, full curve, poor fit].

As to `NS(=O)(=O)c1ccc(-c2ccc(/C=N/NC(=O)c3ccc([N+](=O)[O-])cc3)o2)cc1`, the AC50 under setting [1] is 0.092 µM [rising, full curve, poor fit].

With `O=C(Nc1ccc(Br)cc1Br)c1cccc2c1C(=O)N(C1CCCCC1)C2`, the cell number change was found to be 63%. Moreover, the concentration at half-maximal activity (AC50) under setting [1] is 16.4 µM [rising, partial curve]. Under setting [2], the AC50 was 25.9 µM [rising, partial curve].

With `CCC(=O)N1CCN=C1SCc1cccc(F)c1`, the cell number change turned out to be 5.95%. Further, the AC50 under setting [1] is 1.64 µM [rising, partial curve].

Regarding `CCn1nc(C)c(/C=N/NC(=O)CSc2ccccn2)c1C`, the AC50 under setting [1] was 0.326 µM [rising, full curve, poor fit] and the AC50 under setting [2] was 0.00461 µM [rising, full curve, poor fit].

For the compound `CC(=O)OC(C(=O)NC1CCCCC1)c1cccc(F)c1` (configuration not stated), the cell number change amounted to 13.7%. Moreover, under setting [2], the AC50 was 0.103 µM [falling, full curve, poor fit].

As for `O=C(/C=C/c1cccc(F)c1)NCCCn1ccnc1`, the cell number change turned out to be 0.567%. For the same compound, the AC50 under setting [2] was 0.517 µM [rising, partial curve].

In the case of `CC(=O)OCC1O[C@@H](O[C@@H]2C[C@H]3C(C)(C)[C@H](OC(C)=O)CC[C@]3(C)[C@H]3CC[C@]45C[C@]4(CC[C@H]5[C@@H](C)C[C@@H](O)[C@H](O)C(C)(C)O)[C@@]32C)[C@H](O)[C@@H](O)[C@@H]1O` (some centres not stated), the cell number change was -88.8%. For the same compound, the AC50 under setting [1] was 10.3 µM [falling, partial curve]. In addition, the AC50 under setting [2] is 6.51 µM [falling, partial curve].

In the case of `CCCNC(=O)C(Cc1ccccc1)NC(=O)c1ccc(C(F)(F)F)cc1` (configuration not stated), the cell number change is -13.4%. Also, under setting [2], the AC50 was 1.64 µM [rising, partial curve].

On to `COc1ccccc1N1CCN(CC(O)COc2ccc(C)cc2C)CC1` (configuration not stated), for which the cell number change was found to be 30.6%. Moreover, the AC50 under setting [1] was 5.17 µM [rising, partial curve].

Source of the values: PubChem BioAssay AID2685 (National Center for Advancing Translational Sciences (NCATS), 2010).
